Results are given in words; binding and its absence hold for the method and conditions named. In cells and extracts the contact can be indirect. These calls come from enrichment with a bait or labelling near it, and not all partners need be listed. For some of these results: No binding means not detected with the bait.
Experiments:
[1] = molecular target: T1, CCDC6 (endogenous, RPE1 cells) (human (endogenous in RPE1)) (UniProt Q16204); experiment: affinity purification with mass spectrometry; IP with an anti-CCDC6 antibody from RPE1 lysates, proteins at endogenous levels; WT compared with CCDC6-/-, FBXO42-/- and PPP4C knock-down (shRNA) cells
T1 sequence: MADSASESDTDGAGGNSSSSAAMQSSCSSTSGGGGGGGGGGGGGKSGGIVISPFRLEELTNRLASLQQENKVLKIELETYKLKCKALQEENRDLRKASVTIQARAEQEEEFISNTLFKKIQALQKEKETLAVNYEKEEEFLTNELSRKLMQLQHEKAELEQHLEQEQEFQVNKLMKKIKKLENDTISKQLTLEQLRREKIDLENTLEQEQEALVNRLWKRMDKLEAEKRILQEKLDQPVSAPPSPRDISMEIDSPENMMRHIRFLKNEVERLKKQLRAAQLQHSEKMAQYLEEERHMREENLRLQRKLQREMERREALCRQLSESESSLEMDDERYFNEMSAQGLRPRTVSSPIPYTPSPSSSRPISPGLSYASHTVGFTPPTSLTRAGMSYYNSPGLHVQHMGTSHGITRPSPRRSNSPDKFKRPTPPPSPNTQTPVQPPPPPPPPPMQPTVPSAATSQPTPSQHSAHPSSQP

By UniProt entry, the sequences of proteins in these tests, tags left out.
UniProt Q6P3S6: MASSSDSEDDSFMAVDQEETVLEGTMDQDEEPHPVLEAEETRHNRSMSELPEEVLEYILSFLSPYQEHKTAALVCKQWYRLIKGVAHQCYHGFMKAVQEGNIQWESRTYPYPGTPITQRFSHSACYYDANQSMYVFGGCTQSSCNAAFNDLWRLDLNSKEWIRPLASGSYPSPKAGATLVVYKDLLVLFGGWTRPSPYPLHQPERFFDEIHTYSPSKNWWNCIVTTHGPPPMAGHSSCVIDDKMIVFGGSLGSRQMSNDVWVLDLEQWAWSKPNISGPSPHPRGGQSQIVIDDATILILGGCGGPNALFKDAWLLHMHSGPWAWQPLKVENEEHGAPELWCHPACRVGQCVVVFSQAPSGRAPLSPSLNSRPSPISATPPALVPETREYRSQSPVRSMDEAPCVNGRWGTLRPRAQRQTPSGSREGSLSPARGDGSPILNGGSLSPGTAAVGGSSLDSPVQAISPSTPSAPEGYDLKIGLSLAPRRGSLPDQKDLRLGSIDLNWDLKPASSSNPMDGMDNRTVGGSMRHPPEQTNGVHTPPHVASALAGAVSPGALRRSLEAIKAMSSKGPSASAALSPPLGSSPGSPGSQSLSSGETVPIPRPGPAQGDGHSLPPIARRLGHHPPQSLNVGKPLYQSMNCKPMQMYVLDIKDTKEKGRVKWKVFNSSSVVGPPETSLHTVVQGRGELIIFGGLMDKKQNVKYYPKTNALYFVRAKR

[2] = molecular target: FBXO42 (endogenous, HAP1 cells) (human (endogenous in HAP1)) (UniProt Q6P3S6); experiment: affinity purification with mass spectrometry; IP of endogenous FBXO42 with anti-FBXO42 antibody from HAP1 lysates, WT compared with FBXO42-/- cells; cells treated with 10 uM MG132 for the last 4 h; lysis buffer 100 mM Tris pH 8, 150 mM NaCl, 0.1% NP-40
[3] = molecular target: T2, CCDC6 (endogenous, RPE1 cells) (human (endogenous in RPE1)), Q16204; experiment: affinity purification with mass spectrometry; IP with an anti-CCDC6 antibody from RPE1 lysates, proteins at endogenous levels; WT compared with CCDC6-/-, FBXO42-/- and PPP4C knock-down (shRNA) cells; settings: remark: other sources report otherwise
T2 chain: T1 sequence

B1: PPP4C (endogenous, RPE1 cells) (protein, UniProt P60510 1-307)
chain: MAEISDLDRQIEQLRRCELIKESEVKALCAKAREILVEESNVQRVDSPVTVCGDIHGQFYDLKELFRVGGDVPETNYLFMGDFVDRGFYSVETFLLLLALKVRYPDRITLIRGNHESRQITQVYGFYDECLRKYGSVTVWRYCTEIFDYLSLSAIIDGKIFCVHGGLSPSIQTLDQIRTIDRKQEVPHDGPMCDLLWSDPEDTTGWGVSPRGAGYLFGSDVVAQFNAANDIDMICRAHQLVMEGYKWHFNETVLTVWSAPNYCYRCGNVAAILELDEHLQKDFIIFEAAPQETRGIPSKKPVADYFL
In the case of B1, the binding [1] is reported as “binds”.

B2: PPP4R1 (endogenous, RPE1 cells) (protein, UniProt Q8TF05 1-950)
chain: MADLSLLQEDLQEDADGFGVDDYSSESDVIIIPSALDFVSQDEMLTPLGRLDKYAASENIFNRQMVARSLLDTLREVCDDERDCIAVLERISRLADDSEPTVRAELMEQVPHIALFCQENRPSIPYAFSKFLLPIVVRYLADQNNQVRKTSQAALLALLEQELIERFDVETKVCPVLIELTAPDSNDDVKTEAVAIMCKMAPMVGKDITERLILPRFCEMCCDCRMFHVRKVCAANFGDICSVVGQQATEEMLLPRFFQLCSDNVWGVRKACAECFMAVSCATCQEIRRTKLSALFINLISDPSRWVRQAAFQSLGPFISTFANPSSSGQYFKEESKSSEEMSVENKNRTRDQEAPEDVQVRPEDTPSDLSVSNSSVILENTMEDHAAEASGKPLGEISVPLDSSLLCTLSSESHQEAASNENDKKPGNYKSMLRPEVGTTSQDSALLDQELYNSFHFWRTPLPEIDLDIELEQNSGGKPSPEGPEEESEGPVPSSPNITMATRKELEEMIENLEPHIDDPDVKAQVEVLSAALRASSLDAHEETISIEKRSDLQDELDINELPNCKINQEDSVPLISDAVENMDSTLHYIHSDSDLSNNSSFSPDEERRTKVQDVVPQALLDQYLSMTDPSRAQTVDTEIAKHCAYSLPGVALTLGRQNWHCLRETYETLASDMQWKVRRTLAFSIHELAVILGDQLTAADLVPIFNGFLKDLDEVRIGVLKHLHDFLKLLHIDKRREYLYQLQEFLVTDNSRNWRFRAELAEQLILLLELYSPRDVYDYLRPIALNLCADKVSSVRWISYKLVSEMVKKLHAATPPTFGVDLINELVENFGRCPKWSGRQAFVFVCQTVIEDDCLPMDQFAVHLMPHLLTLANDRVPNVRVLLAKTLRQTLLEKDYFLASASCHQEAVEQTIMALQMDRDSDVKYFASIHPASTKISEDAMSTASSTY
With B2 the binding [1] was “binds”.

B3: PPP4C, protein phosphatase 4 catalytic subunit (endogenous, HAP1 cells) (protein, UniProt P60510 1-307)
chain: B1 chain
For B3, the binding [2] was “binds”.

B4: PPP4R1 (endogenous, HAP1 cells) (protein, UniProt Q8TF05 1-950)
chain: B2 chain
B4 was tested, and the binding [2] was “binds”.

B5: PPP4R2 (endogenous, HAP1 cells) (protein, UniProt Q9NY27 1-417)
chain: MDVERLQEALKDFEKRGKKEVCPVLDQFLCHVAKTGETMIQWSQFKGYFIFKLEKVMDDFRTSAPEPRGPPNPNVEYIPFDEMKERILKIVTGFNGIPFTIQRLCELLTDPRRNYTGTDKFLRGVEKNVMVVSCVYPSSEKNNSNSLNRMNGVMFPGNSPSYTERSNINGPGTPRPLNRPKVSLSAPMTTNGLPESTDSKEANLQQNEEKNHSDSSTSESEVSSVSPLKNKHPDEDAVEAEGHEVKRLRFDKEGEVRETASQTTSSEISSVMVGETEASSSSQDKDKDSRCTRQHCTEEDEEEDEEEEEESFMTSREMIPERKNQEKESDDALTVNEETSEENNQMEESDVSQAEKDLLHSEGSENEGPVSSSSSDCRETEELVGSNSSKTGEILSESSMENDDEATEVTDEPMEQD
With B5 the binding [2] was “binds”.

B6: PPP4R2 (endogenous, RPE1 cells) (protein, UniProt Q9NY27 1-417)
chain: B5 chain
For B6, the binding [1] was “no binding”.

B7: PPP4R3A (endogenous, RPE1 cells), Q6IN85 1-833 (protein)
chain: MTDTRRRVKVYTLNEDRQWDDRGTGHVSSGYVERLKGMSLLVRAESDGSLLLESKINPNTAYQKQQDTLIVWSEAENYDLALSFQEKAGCDEIWEKICQVQGKDPSVDITQDLVDESEEERFDDMSSPGLELPSCELSRLEEIAELVASSLPSPLRREKLALALENEGYIKKLLELFHVCEDLENIEGLHHLYEIIKGIFLLNRTALFEVMFSEECIMDVIGCLEYDPALSQPRKHREFLTKTAKFKEVIPISDPELKQKIHQTYRVQYIQDMVLPTPSVFEENMLSTLHSFIFFNKVEIVGMLQEDEKFLTDLFAQLTDEATDEEKRQELVNFLKEFCAFSQTLQPQNRDAFFKTLSNMGILPALEVILGMDDTQVRSAATDIFSYLVEYNPSMVREFVMQEAQQNDDVSKKLTEQKITSKDILLINLIIEHMICDTDPELGGAVQLMGLLRTLVDPENMLATANKTEKTEFLGFFYKHCMHVLTAPLLANTTEDKPSKDDFQTAQLLALVLELLTFCVEHHTYHIKNYIINKDILRRVLVLMASKHAFLALCALRFKRKIIGLKDEFYNRYIMKSFLFEPVVKAFLNNGSRYNLMNSAIIEMFEFIRVEDIKSLTAHVIENYWKALEDVDYVQTFKGLKLRFEQQRERQDNPKLDSMRSILRNHRYRRDARTLEDEEEMWFNTDEDDMEDGEAVVSPSDKTKNDDDIMDPISKFMERKKLKESEEKEVLLKTNLSGRQSPSFKLSLSSGTKTNLTSQSSTTNLPGSPGSPGSPGSPGSPGSVPKNTSQTAAITTKGGLVGLVDYPDDDEDDDEDEDKEDTLPLSKKAKFDS
B7 was tested, and the binding [3] was “no binding”.

From paper PMC13458699
